Test results as given in patent US20170015718A1, “PRO-APOPTOTIC RAS AND RAF PEPTIDES” (UNIVERSITE PIERRE ET MARIE CURIE (PARIS 6), priority 2013, published 2017).
No constants are given. Whether binding was seen depends on the method and setting. Some entries that bind do so weakly or less than the wild type.

Target: K-Ras protein (purified; murine Ras protein) (murine) (UniProt P32883)
Assay: cellulose-bound overlapping dodecapeptides probed with purified protein, antibody, ECL

| binding | Binder |
| --- | --- |
| binds | HEHKGKKARLDWNTDAAS [Raf2 peptide …] |
| binds | MEHIQGAWKTISNGFGLK [Raf1 peptide …] |
